# From the odorant receptor screen of Mainland et al. (2015)
# Values joined by “and” are separate entries in the source; they are usually repeats but may differ in a detail not shown here. Identical values can stand only once. The list shows a part of the results. Each value is one well over the wells without odorant, computed here; the data are noisy.
# Assays:
# Assay in all cases: odorant receptor activation (CRE luciferase / Renilla) (fold of no-odor wells); higher = more activation
# Conditions in all cases: 100 µM
# OR2T10 clone 1047 = system: OR2T10 clone 1047
# [1] = system: OR2T11 C119R/Q309R clone 1050
# [2] = system: OR2T11 C119R/Q309R clone 1051
# OR2T2 clone 1561 = system: OR2T2 clone 1561
# OR2T29 clone 1545 = system: OR2T29 clone 1545
# OR2T3 clone 1397 = system: OR2T3 clone 1397
# OR2T34 clone 1049 = system: OR2T34 clone 1049
# OR2T35 V31I clone 1562 = system: OR2T35 V31I clone 1562
# OR2T4 clone 1347 = system: OR2T4 clone 1347
# OR2T5 clone 1033 = system: OR2T5 clone 1033
SMILES,odorant receptor activation (OR2T10 clone 1047),odorant receptor activation [1],odorant receptor activation [2],odorant receptor activation (OR2T2 clone 1561),odorant receptor activation (OR2T29 clone 1545),odorant receptor activation (OR2T3 clone 1397),odorant receptor activation (OR2T34 clone 1049),odorant receptor activation (OR2T35 V31I clone 1562),odorant receptor activation (OR2T4 clone 1347),odorant receptor activation (OR2T5 clone 1033)
CCCCOC(C)=O [butyl acetate],1.11,1.11,1.28,0.691,0.795,0.256,0.824,1.06,0.843,1.15
CCOc1cc(C=O)ccc1O [ethyl vanillin],1.15 and 1.11,0.899 and 1.11,1.2 and 1.11,0.949,1.24,1.21 and 1.04,1.81 and 0.937,0.871,1.25 and 1.08,1.36 and 1.07
CCC(C)=O [2-butanone],3.25,2.63,2.43,0.789,1.31,0.974,2.69,0.589,1.32,1.75
CS [methanethiol],0.983,1.02,1.12,1.6,0.818,0.846,0.864,0.562,0.721,1.06
